The values that follow come from article doi:10.1101/2025.09.29.679228.

No constants are given. Whether binding was seen depends on the method and setting. Binding can be weak; no strength is given.

The target of this test is EphA2 ICRΔSAM, kinase-dead (D739N) (human). In words: MST.

B1: SHIP2 SAM domain (isolated) (domain or fragment, UniProt O15357 1200-1258)
chain: GMSAWLRAIGLERYEEGLVHNGWDDLEFLSDITEEDLEEAGVQDPAHKRLLLDTLQLSK
Regarding B1, the binding result is on record as “binds”.
